# Inconclusive results, whose numbers are uncertain, are shown with a selection of clear calls. For some assays here: Potencies beside an inconclusive call are fits to weak or partial responses and may not hold up. More than one record can exist for a structure, and the calls need not agree. Calls of active or inactive are those of the source. Unless noted, calls come from the whole dose curve; as a rule, active = well fitted curve in the direction sought with a large enough effect; inconclusive = small, poorly fitted or top-dose-only effect, or another doubt; inactive = no such curve, though single readings can be large; an effect the other way counts as inactive or inconclusive.
# Chains of the proteins cited; added tags and fusions are not shown. Lines headed by an entry give the natural chain unless they say otherwise; changes in a name come on top.
# UniProt O15648: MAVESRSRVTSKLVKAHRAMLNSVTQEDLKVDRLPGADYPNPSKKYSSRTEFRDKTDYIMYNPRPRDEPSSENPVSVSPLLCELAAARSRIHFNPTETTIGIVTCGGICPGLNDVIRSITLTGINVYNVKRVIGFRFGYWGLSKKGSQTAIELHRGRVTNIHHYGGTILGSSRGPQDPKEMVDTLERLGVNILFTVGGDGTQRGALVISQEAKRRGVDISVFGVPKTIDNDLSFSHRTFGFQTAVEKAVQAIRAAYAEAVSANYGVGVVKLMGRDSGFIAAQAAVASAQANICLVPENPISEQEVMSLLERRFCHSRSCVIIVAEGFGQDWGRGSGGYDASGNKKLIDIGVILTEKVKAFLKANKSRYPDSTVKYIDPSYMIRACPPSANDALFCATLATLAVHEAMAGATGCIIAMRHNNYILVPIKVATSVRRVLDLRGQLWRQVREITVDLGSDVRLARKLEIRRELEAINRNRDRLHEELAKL
# UniProt O89049, whole entry, looked up: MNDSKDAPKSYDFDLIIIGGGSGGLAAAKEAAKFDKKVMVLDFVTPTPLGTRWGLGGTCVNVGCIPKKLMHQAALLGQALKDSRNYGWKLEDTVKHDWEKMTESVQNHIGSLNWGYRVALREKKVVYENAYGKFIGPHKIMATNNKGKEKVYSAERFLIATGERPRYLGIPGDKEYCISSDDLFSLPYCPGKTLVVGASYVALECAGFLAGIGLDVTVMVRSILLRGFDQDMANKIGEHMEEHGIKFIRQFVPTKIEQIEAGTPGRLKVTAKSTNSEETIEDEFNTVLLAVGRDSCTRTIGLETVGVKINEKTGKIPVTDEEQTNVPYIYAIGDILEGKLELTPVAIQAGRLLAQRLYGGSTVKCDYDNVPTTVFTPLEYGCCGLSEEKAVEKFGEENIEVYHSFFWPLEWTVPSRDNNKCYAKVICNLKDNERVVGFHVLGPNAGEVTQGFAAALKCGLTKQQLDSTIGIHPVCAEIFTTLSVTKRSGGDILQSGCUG
# UniProt Q99549: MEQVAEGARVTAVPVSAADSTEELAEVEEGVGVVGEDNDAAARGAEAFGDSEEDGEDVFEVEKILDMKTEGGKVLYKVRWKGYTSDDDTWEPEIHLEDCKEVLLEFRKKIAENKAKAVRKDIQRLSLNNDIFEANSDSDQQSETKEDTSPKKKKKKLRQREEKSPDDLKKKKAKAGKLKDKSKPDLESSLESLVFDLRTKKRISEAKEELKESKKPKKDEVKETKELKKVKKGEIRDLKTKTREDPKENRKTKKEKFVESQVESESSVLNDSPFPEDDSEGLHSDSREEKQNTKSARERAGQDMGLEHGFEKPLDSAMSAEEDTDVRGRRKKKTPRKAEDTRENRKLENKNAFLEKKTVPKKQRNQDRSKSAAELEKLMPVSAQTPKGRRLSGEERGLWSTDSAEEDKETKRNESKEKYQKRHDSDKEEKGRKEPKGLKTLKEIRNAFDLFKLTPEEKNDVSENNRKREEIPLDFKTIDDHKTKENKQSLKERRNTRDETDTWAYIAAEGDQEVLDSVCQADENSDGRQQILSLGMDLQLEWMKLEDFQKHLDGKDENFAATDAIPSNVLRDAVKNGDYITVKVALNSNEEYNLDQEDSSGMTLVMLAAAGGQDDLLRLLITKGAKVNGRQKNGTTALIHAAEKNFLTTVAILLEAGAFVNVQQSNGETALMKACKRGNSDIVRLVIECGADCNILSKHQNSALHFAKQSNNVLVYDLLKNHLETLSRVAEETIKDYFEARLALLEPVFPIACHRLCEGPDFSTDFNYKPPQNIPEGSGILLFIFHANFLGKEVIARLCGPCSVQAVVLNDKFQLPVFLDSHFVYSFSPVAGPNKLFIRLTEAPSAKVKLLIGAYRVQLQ
# Test system: not listed separately
# Experiment: Validation screen for small molecules that induce DNA re-replication in MCF 10A normal breast cells (AID 463097); note: 0% is about no effect; nearly all actives have a fitted effect of over 60% in size
# Conditions: MCF 10A cells, DNA re-replication phenotype imaging; series mostly up to 46.1 µM
# Summary of the method: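 250 MCF 10A cells/well; compound pin-transferred; 48 hr, 37 C, 5% CO2; Hoechst 40 min; imaged 405/500-530 nm. Hits = more high-intensity nuclei.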
row,Compound,Potency
1,COc1ccccc1N1CCN(CCN(C(=O)c2ccc(F)cc2)c2ccccn2)CC1,inactive
2,[Li+],inactive
3,NCCCNCCCCNCCCN,inactive
4,NCCC1CCCC(CCN)N1 (centres undefined),inactive

# Test system: not listed separately
# Experiment: qHTS Validation Assay to Find Inhibitors of Chronic Active B-Cell Receptor Signaling (AID 485345; active = well fitted curve in the direction sought with a large enough effect in the main read-out, with a control signal flat, not every such curve was filed as active; inconclusive = small, poorly fitted or top-dose-only effect, or effect the other way, or a change in a side signal; inactive = no such curve, though single readings can be large or run the other way;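 note: 0% = untreated basal cells and 100% = 10 µM MG-132 proteasome inhibitor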)
# Conditions: ABC-DLBCL cells, chronic BCR signaling reporter, CBG luciferase; at 46.1 µM (top of the series)
# Summary of the method: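 Read-out: ratio of filter-corrected green (IkappaBalpha fusion) to red (native) luciferase signal in doxycycline-induced TMD8 cells after 4 h at 37C. Titration spanned 46 uM–3 nM; Data were normalised to basal cells and 10 uM MG-132 wells.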
row,Compound,activity change
1,CCCCOc1cc(CC2CNC(=O)N2)ccc1OC (centres undefined),inconclusive: -43.5%
2,CSc1nc(N)c2ncn([C@@H]3O[C@H](COP(=O)(O)OP(=O)(O)OP(=O)(O)O)[C@@H](O)[C@H]3O)c2n1,inconclusive: -33.2%
3,O=C(O)c1cc(=O)cc(C(=O)O)[nH]1,inactive: -6.72%

# Biological target: ATP-dependent 6-phosphofructokinase (Trypanosoma brucei brucei) (UniProt O15648)
# Experiment: qHTS Validation Assay to Find Inhibitors of T. brucei phosphofructokinase (AID 485368); note: potency is the fitted concentration of half-maximal effect
# Conditions: T. brucei PFK enzyme assay, qHTS 7-point titration; series mostly up to 57.5 µM
# Summary of the method: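 Inhibition derived from concentration-response curves of luminescence, ranked by r2, response size and curve class; the underlying reaction used 1.25 nM PFK, 0.1 mM ATP and 0.5 mM F6P, 45 min, room temperature.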
row,Compound,Potency
1,Cc1cc2c(cc1Cl)N(C(=O)Nc1ccnc3ccccc13)CC2,"inconclusive: 1.69 µM [falling, full curve]"
2,N[C@H](C(=O)O)[C@H](O)C(=O)O,inactive
3,CO/N=C(\C(=O)N[C@@H]1C(=O)N2C(C(=O)O)=C(CSc3nc(=O)c(O)nn3C)CSC12)c1csc(N)n1 (some centres undefined),"inconclusive: 37.9 µM [falling, single point]"
4,CCCn1c(=O)c2[nH]c(-c3ccc(OCC(=O)NCCN)cc3)nc2n(CCC)c1=O,"inconclusive: 9.53 µM [activator, partial curve, poor fit]"
5,CN1C2CCCC1CC(NC(=O)c1nn(C)c3ccccc13)C2 (centres undefined),"inconclusive: 8.49 µM [falling, single point]"
6,CC1C(=O)N(C)C(=O)c2nc[nH]c21 (centres undefined),inactive
7,COc1ccccc1N1CCN(CCN(C(=O)c2ccc(F)cc2)c2ccccn2)CC1,inactive
8,NCC(O)c1ccc(O)c(O)c1 (centres undefined),"inconclusive: 23.9 µM [falling, single point]"
9,CSc1nc(N)c2ncn([C@@H]3O[C@H](COP(=O)(O)OP(=O)(O)OP(=O)(O)O)[C@@H](O)[C@H]3O)c2n1,"inconclusive: 12 µM [falling, partial curve, poor fit]"
10,[Li+],"inconclusive: 8.49 µM [falling, single point]"
11,NC(=S)NCCC[C@H](N)C(=O)O,active: 19 µM
12,O=C(O)c1cc(=O)cc(C(=O)O)[nH]1,"inconclusive: 10.7 µM [activator, partial curve]"
13,NCCCNCCCCNCCCN,"inconclusive: 37.9 µM [activator, single point]"
14,CN(CC[C@@H](Oc1ccc(C(F)(F)F)cc1)c1ccccc1)CC(=O)O,"inconclusive: 0.012 µM [activator, full curve]"
15,Oc1cc2c(cc1O)C(c1ccccc1)CNCC2 (centres undefined),"inconclusive: 3.01 µM [falling, partial curve]"
16,NCCC1CCCC(CCN)N1 (centres undefined),"inconclusive: 8.49 µM [falling, single point]"
17,CN1CCc2cc(O)c(O)cc2C(c2ccccc2)C1 (centres undefined),"inconclusive: 16.9 µM [falling, partial curve]"

# Test system: not listed separately
# Experiment: Quantitative high throughput screen for delayed death inhibitors of the malarial parasite plastid, 96 hour incubation (AID 488745); note: nearly all actives have a fitted effect of over 70% in size; note: potency is the fitted concentration of half-maximal effect
# Conditions: Plasmodium falciparum growth; series mostly up to 28.7 µM
# Summary of the method: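 Decreased firefly luciferase luminescence indicates inhibited growth of reporter-integrated P. falciparum after two generations (96 h, 37 C, 5% CO2). Infected erythrocytes at 0.1% parasitemia, 2% hematocrit, in Albumax-supplemented RPMI 1640.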
row,Compound,Potency
1,CCCCOc1cc(CC2CNC(=O)N2)ccc1OC (centres undefined),"inconclusive: 18.5 µM [inhibitor, single point]"
2,Cc1cc2c(cc1Cl)N(C(=O)Nc1ccnc3ccccc13)CC2,inactive
3,CC(=O)[C@H]1CCC2C3CC=C4C[C@@H](OS(=O)(=O)O)CC[C@]4(C)C3CC[C@@]21C (some centres undefined),inactive
4,CO/N=C(\C(=O)N[C@@H]1C(=O)N2C(C(=O)O)=C(CSc3nc(=O)c(O)nn3C)CSC12)c1csc(N)n1 (some centres undefined),inactive
5,CCCn1c(=O)c2[nH]c(-c3ccc(OCC(=O)NCCN)cc3)nc2n(CCC)c1=O,"inconclusive: 13.1 µM [inhibitor, single point]"
6,COc1cc2c(CCNC(C)=O)c[nH]c2cc1O,"inconclusive: 9.28 µM [activator, single point]"
7,Oc1cc2c(cc1O)C(c1ccccc1)CNCC2 (centres undefined),inactive

# Test system: not listed separately
# Experiment: Quantitative high throughput screen for delayed death inhibitors of the malarial parasite plastid, 48 hour incubation (AID 488752); note: nearly all actives have a fitted effect of over 65% in size; note: potency is the fitted concentration of half-maximal effect
# Conditions: Plasmodium falciparum growth; series mostly up to 28.7 µM
# Summary of the method: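 One-generation (48 h) growth assay: a decrease in luciferase signal from an integrated reporter in P. falciparum-infected red cells (0.1% parasitemia, 2% hematocrit) after compound exposure at 37 C indicates parasite inhibition.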
row,Compound,Potency
1,Cc1cc2c(cc1Cl)N(C(=O)Nc1ccnc3ccccc13)CC2,inactive
2,CC(=O)[C@H]1CCC2C3CC=C4C[C@@H](OS(=O)(=O)O)CC[C@]4(C)C3CC[C@@]21C (some centres undefined),inactive
3,CCCn1c(=O)c2[nH]c(-c3ccc(OCC(=O)NCCN)cc3)nc2n(CCC)c1=O,"inconclusive: 18.5 µM [inhibitor, single point]"
4,CC1C(=O)N(C)C(=O)c2nc[nH]c21 (centres undefined),inactive
5,COc1ccccc1N1CCN(CCN(C(=O)c2ccc(F)cc2)c2ccccn2)CC1,"inconclusive: 14.7 µM [inhibitor, single point]"
6,CN1CCc2cc(O)c(O)cc2C(c2ccccc2)C1 (centres undefined),"inconclusive: 18.5 µM [inhibitor, single point]"

# Biological target: Thioredoxin reductase 1, cytoplasmic (Rattus norvegicus) (UniProt O89049)
# Experiment: qHTS Assay for Inhibitors of Mammalian Selenoprotein Thioredoxin Reductase 1 (TrxR1) (AID 488773); note: nearly all actives have a fitted effect of over 40% in size; note: potency is the fitted concentration of half-maximal effect
# Conditions: purified TrxR1 enzyme activity; Potency: inhibition; series mostly up to 57.1 µM
# Summary of the method: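 Inhibition is scored from the loss of NADPH fluorescence between first and last reads of an 8-min kinetic run. Selenite (400 uM) was the substrate, added after 15 min compound preincubation at room temperature.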
row,Compound,Potency
1,NCC(O)c1ccc(O)c(O)c1 (centres undefined),"inconclusive: 9.47 µM [inhibitor, partial curve]"
2,CC(N)(Cc1ccc(O)c(O)c1)C(=O)O (centres undefined),active: 2.99 µM
3,Oc1cc2c(cc1O)C(c1ccccc1)CNCC2 (centres undefined),inactive

# Biological target: M-phase phosphoprotein 8 (Homo sapiens) (UniProt Q99549)
# Experiment: qHTS Validation Assay for Inhibitors for MPP8 Chromodomain Interactions with Methylated Histone Tails (AID 488949); note: nearly all actives have a fitted effect of over 55% in size; note: potency is the fitted concentration of half-maximal effect
# Conditions: AlphaScreen MPP8 binding to H3K9me3 peptide; series mostly up to 57.1 µM
# Summary of the method: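 AlphaScreen read-out: streptavidin donor and nickel chelate acceptor beads (final 10 ug/mL), 30 min in the dark at RT. Complex of 50 nM MPP8 and 50 nM b-H3(1-18)K9me3 peptide had been exposed to compounds for 30 min beforehand.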
row,Compound,Potency
1,Cc1cc2c(cc1Cl)N(C(=O)Nc1ccnc3ccccc13)CC2,"inconclusive: 79.4 µM [inhibitor, single point]"
2,CO/N=C(\C(=O)N[C@@H]1C(=O)N2C(C(=O)O)=C(CSc3nc(=O)c(O)nn3C)CSC12)c1csc(N)n1 (some centres undefined),active: 44.7 µM and inactive
3,Oc1cc2c(cc1O)C(c1ccccc1)CNCC2 (centres undefined),"inconclusive: 79.4 µM [inhibitor, partial curve]"
4,CN1CCc2cc(O)c(O)cc2C(c2ccccc2)C1 (centres undefined),"inconclusive: 44.7 µM [inhibitor, partial curve, poor fit]"

# — PubChem BioAssay (NCATS)
